Measured values reported in patent US20180214542A1.
No constants are given. Whether binding was seen depends on the method and setting. Some binding calls cover weakened binding; strength is not graded here.

Chains of the proteins cited; added tags and fusions are not shown.
UniProt P49682: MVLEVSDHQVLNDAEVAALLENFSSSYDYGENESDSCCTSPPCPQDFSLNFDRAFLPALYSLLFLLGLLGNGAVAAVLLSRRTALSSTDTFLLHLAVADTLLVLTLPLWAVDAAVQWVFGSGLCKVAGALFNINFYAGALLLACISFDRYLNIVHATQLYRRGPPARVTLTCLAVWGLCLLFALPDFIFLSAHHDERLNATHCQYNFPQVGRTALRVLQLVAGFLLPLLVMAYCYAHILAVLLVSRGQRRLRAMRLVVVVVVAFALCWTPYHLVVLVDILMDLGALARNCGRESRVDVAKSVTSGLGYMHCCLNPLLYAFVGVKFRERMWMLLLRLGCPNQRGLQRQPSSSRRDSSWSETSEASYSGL

Target: recombinant human CXCR3 (human) (UniProt P49682)
Test: Biacore, binding avidity to recombinant human CXCR3

binding	Binder
binds	53Hu37 variant VH N105F / VL S92R (antibody, V domains shown) VH: EVQLLESGGGLVQPGGSLRLSCAASGFTFTSYAMSWVRQAPGKGLEWVATISHGGTYTYYPDSVKGRFTISRDNAKNTLYLQMNSLRAEDTAVYYCARHPIYSGFYQGYFDYWGQGTLVTVSS VL: DIQLTQSPSFLSASVGDRVTITCRASSGVNYLYWYQQKPGKAPKLWIYFTSTLASGVPSRFSGSGSGNEYTLTISSLQPEDFATYYCQQFTRSPYTFGQGTKLEIK
binds	53Hu37 variant VH S103N / VL N30R/S92R (antibody, V domains shown) VH: EVQLLESGGGLVQPGGSLRLSCAASGFTFTSYAMSWVRQAPGKGLEWVATISHGGTYTYYPDSVKGRFTISRDNAKNTLYLQMNSLRAEDTAVYYCARHPIYNGNYQGYFDYWGQGTLVTVSS VL: DIQLTQSPSFLSASVGDRVTITCRASSGVRYLYWYQQKPGKAPKLWIYFTSTLASGVPSRFSGSGSGNEYTLTISSLQPEDFATYYCQQFTRSPYTFGQGTKLEIK
binds	53Hu37 variant VH N105W / VL S92R (antibody, V domains shown) VH: EVQLLESGGGLVQPGGSLRLSCAASGFTFTSYAMSWVRQAPGKGLEWVATISHGGTYTYYPDSVKGRFTISRDNAKNTLYLQMNSLRAEDTAVYYCARHPIYSGWYQGYFDYWGQGTLVTVSS VL: DIQLTQSPSFLSASVGDRVTITCRASSGVNYLYWYQQKPGKAPKLWIYFTSTLASGVPSRFSGSGSGNEYTLTISSLQPEDFATYYCQQFTRSPYTFGQGTKLEIK
binds	53Hu37 variant VH S103P / VL N30R/S92R (antibody, V domains shown) VH: EVQLLESGGGLVQPGGSLRLSCAASGFTFTSYAMSWVRQAPGKGLEWVATISHGGTYTYYPDSVKGRFTISRDNAKNTLYLQMNSLRAEDTAVYYCARHPIYPGNYQGYFDYWGQGTLVTVSS VL: DIQLTQSPSFLSASVGDRVTITCRASSGVRYLYWYQQKPGKAPKLWIYFTSTLASGVPSRFSGSGSGNEYTLTISSLQPEDFATYYCQQFTRSPYTFGQGTKLEIK
binds	53Hu37 variant VH S103R / VL N30R/S92R (antibody, V domains shown) VH: EVQLLESGGGLVQPGGSLRLSCAASGFTFTSYAMSWVRQAPGKGLEWVATISHGGTYTYYPDSVKGRFTISRDNAKNTLYLQMNSLRAEDTAVYYCARHPIYRGNYQGYFDYWGQGTLVTVSS VL: DIQLTQSPSFLSASVGDRVTITCRASSGVRYLYWYQQKPGKAPKLWIYFTSTLASGVPSRFSGSGSGNEYTLTISSLQPEDFATYYCQQFTRSPYTFGQGTKLEIK
binds	53Hu37 variant VH S103L / VL N30R/S92R (antibody, V domains shown) VH: EVQLLESGGGLVQPGGSLRLSCAASGFTFTSYAMSWVRQAPGKGLEWVATISHGGTYTYYPDSVKGRFTISRDNAKNTLYLQMNSLRAEDTAVYYCARHPIYLGNYQGYFDYWGQGTLVTVSS VL: DIQLTQSPSFLSASVGDRVTITCRASSGVRYLYWYQQKPGKAPKLWIYFTSTLASGVPSRFSGSGSGNEYTLTISSLQPEDFATYYCQQFTRSPYTFGQGTKLEIK
binds	53Hu37 variant VH N105W / VL 53Hu37 (antibody, V domains shown) VH: EVQLLESGGGLVQPGGSLRLSCAASGFTFTSYAMSWVRQAPGKGLEWVATISHGGTYTYYPDSVKGRFTISRDNAKNTLYLQMNSLRAEDTAVYYCARHPIYSGWYQGYFDYWGQGTLVTVSS VL: DIQLTQSPSFLSASVGDRVTITCRASSGVNYLYWYQQKPGKAPKLWIYFTSTLASGVPSRFSGSGSGNEYTLTISSLQPEDFATYYCQQFTSSPYTFGQGTKLEIK
binds	53Hu37 variant VH S103C / VL N30R/S92R (antibody, V domains shown) VH: EVQLLESGGGLVQPGGSLRLSCAASGFTFTSYAMSWVRQAPGKGLEWVATISHGGTYTYYPDSVKGRFTISRDNAKNTLYLQMNSLRAEDTAVYYCARHPIYCGNYQGYFDYWGQGTLVTVSS VL: DIQLTQSPSFLSASVGDRVTITCRASSGVRYLYWYQQKPGKAPKLWIYFTSTLASGVPSRFSGSGSGNEYTLTISSLQPEDFATYYCQQFTRSPYTFGQGTKLEIK
binds	53Hu37 variant VH S103H / VL N30R/S92R (antibody, V domains shown) VH: EVQLLESGGGLVQPGGSLRLSCAASGFTFTSYAMSWVRQAPGKGLEWVATISHGGTYTYYPDSVKGRFTISRDNAKNTLYLQMNSLRAEDTAVYYCARHPIYHGNYQGYFDYWGQGTLVTVSS VL: DIQLTQSPSFLSASVGDRVTITCRASSGVRYLYWYQQKPGKAPKLWIYFTSTLASGVPSRFSGSGSGNEYTLTISSLQPEDFATYYCQQFTRSPYTFGQGTKLEIK
binds	53Hu37 variant VH S103T / VL N30R/S92R (antibody, V domains shown) VH: EVQLLESGGGLVQPGGSLRLSCAASGFTFTSYAMSWVRQAPGKGLEWVATISHGGTYTYYPDSVKGRFTISRDNAKNTLYLQMNSLRAEDTAVYYCARHPIYTGNYQGYFDYWGQGTLVTVSS VL: DIQLTQSPSFLSASVGDRVTITCRASSGVRYLYWYQQKPGKAPKLWIYFTSTLASGVPSRFSGSGSGNEYTLTISSLQPEDFATYYCQQFTRSPYTFGQGTKLEIK
binds	53Hu37 variant VH S103E / VL N30R/S92R (antibody, V domains shown) VH: EVQLLESGGGLVQPGGSLRLSCAASGFTFTSYAMSWVRQAPGKGLEWVATISHGGTYTYYPDSVKGRFTISRDNAKNTLYLQMNSLRAEDTAVYYCARHPIYEGNYQGYFDYWGQGTLVTVSS VL: DIQLTQSPSFLSASVGDRVTITCRASSGVRYLYWYQQKPGKAPKLWIYFTSTLASGVPSRFSGSGSGNEYTLTISSLQPEDFATYYCQQFTRSPYTFGQGTKLEIK
binds	53Hu37 variant VH S103M / VL N30R/S92R (antibody, V domains shown) VH: EVQLLESGGGLVQPGGSLRLSCAASGFTFTSYAMSWVRQAPGKGLEWVATISHGGTYTYYPDSVKGRFTISRDNAKNTLYLQMNSLRAEDTAVYYCARHPIYMGNYQGYFDYWGQGTLVTVSS VL: DIQLTQSPSFLSASVGDRVTITCRASSGVRYLYWYQQKPGKAPKLWIYFTSTLASGVPSRFSGSGSGNEYTLTISSLQPEDFATYYCQQFTRSPYTFGQGTKLEIK
binds	53Hu37 variant VH S103D / VL N30R/S92R (antibody, V domains shown) VH: EVQLLESGGGLVQPGGSLRLSCAASGFTFTSYAMSWVRQAPGKGLEWVATISHGGTYTYYPDSVKGRFTISRDNAKNTLYLQMNSLRAEDTAVYYCARHPIYDGNYQGYFDYWGQGTLVTVSS VL: DIQLTQSPSFLSASVGDRVTITCRASSGVRYLYWYQQKPGKAPKLWIYFTSTLASGVPSRFSGSGSGNEYTLTISSLQPEDFATYYCQQFTRSPYTFGQGTKLEIK
binds	53Hu37 variant VH S103Y / VL N30R/S92R (antibody, V domains shown) VH: EVQLLESGGGLVQPGGSLRLSCAASGFTFTSYAMSWVRQAPGKGLEWVATISHGGTYTYYPDSVKGRFTISRDNAKNTLYLQMNSLRAEDTAVYYCARHPIYYGNYQGYFDYWGQGTLVTVSS VL: DIQLTQSPSFLSASVGDRVTITCRASSGVRYLYWYQQKPGKAPKLWIYFTSTLASGVPSRFSGSGSGNEYTLTISSLQPEDFATYYCQQFTRSPYTFGQGTKLEIK
binds	53Hu37 variant VH S103G / VL N30R/S92R (antibody, V domains shown) VH: EVQLLESGGGLVQPGGSLRLSCAASGFTFTSYAMSWVRQAPGKGLEWVATISHGGTYTYYPDSVKGRFTISRDNAKNTLYLQMNSLRAEDTAVYYCARHPIYGGNYQGYFDYWGQGTLVTVSS VL: DIQLTQSPSFLSASVGDRVTITCRASSGVRYLYWYQQKPGKAPKLWIYFTSTLASGVPSRFSGSGSGNEYTLTISSLQPEDFATYYCQQFTRSPYTFGQGTKLEIK
binds	53Hu37 variant VH S103K / VL N30R/S92R (antibody, V domains shown) VH: EVQLLESGGGLVQPGGSLRLSCAASGFTFTSYAMSWVRQAPGKGLEWVATISHGGTYTYYPDSVKGRFTISRDNAKNTLYLQMNSLRAEDTAVYYCARHPIYKGNYQGYFDYWGQGTLVTVSS VL: DIQLTQSPSFLSASVGDRVTITCRASSGVRYLYWYQQKPGKAPKLWIYFTSTLASGVPSRFSGSGSGNEYTLTISSLQPEDFATYYCQQFTRSPYTFGQGTKLEIK
binds	53Hu37 variant VH S103F / VL N30R/S92R (antibody, V domains shown) VH: EVQLLESGGGLVQPGGSLRLSCAASGFTFTSYAMSWVRQAPGKGLEWVATISHGGTYTYYPDSVKGRFTISRDNAKNTLYLQMNSLRAEDTAVYYCARHPIYFGNYQGYFDYWGQGTLVTVSS VL: DIQLTQSPSFLSASVGDRVTITCRASSGVRYLYWYQQKPGKAPKLWIYFTSTLASGVPSRFSGSGSGNEYTLTISSLQPEDFATYYCQQFTRSPYTFGQGTKLEIK
binds	53Hu37 variant VH S103W / VL N30R/S92R (antibody, V domains shown) VH: EVQLLESGGGLVQPGGSLRLSCAASGFTFTSYAMSWVRQAPGKGLEWVATISHGGTYTYYPDSVKGRFTISRDNAKNTLYLQMNSLRAEDTAVYYCARHPIYWGNYQGYFDYWGQGTLVTVSS VL: DIQLTQSPSFLSASVGDRVTITCRASSGVRYLYWYQQKPGKAPKLWIYFTSTLASGVPSRFSGSGSGNEYTLTISSLQPEDFATYYCQQFTRSPYTFGQGTKLEIK
binds	53Hu37 variant VH S103V / VL N30R/S92R (antibody, V domains shown) VH: EVQLLESGGGLVQPGGSLRLSCAASGFTFTSYAMSWVRQAPGKGLEWVATISHGGTYTYYPDSVKGRFTISRDNAKNTLYLQMNSLRAEDTAVYYCARHPIYVGNYQGYFDYWGQGTLVTVSS VL: DIQLTQSPSFLSASVGDRVTITCRASSGVRYLYWYQQKPGKAPKLWIYFTSTLASGVPSRFSGSGSGNEYTLTISSLQPEDFATYYCQQFTRSPYTFGQGTKLEIK
binds	53Hu37 variant VH S103A / VL N30R/S92R (antibody, V domains shown) VH: EVQLLESGGGLVQPGGSLRLSCAASGFTFTSYAMSWVRQAPGKGLEWVATISHGGTYTYYPDSVKGRFTISRDNAKNTLYLQMNSLRAEDTAVYYCARHPIYAGNYQGYFDYWGQGTLVTVSS VL: DIQLTQSPSFLSASVGDRVTITCRASSGVRYLYWYQQKPGKAPKLWIYFTSTLASGVPSRFSGSGSGNEYTLTISSLQPEDFATYYCQQFTRSPYTFGQGTKLEIK
binds	53Hu37 variant VH S103Q / VL N30R/S92R (antibody, V domains shown) VH: EVQLLESGGGLVQPGGSLRLSCAASGFTFTSYAMSWVRQAPGKGLEWVATISHGGTYTYYPDSVKGRFTISRDNAKNTLYLQMNSLRAEDTAVYYCARHPIYQGNYQGYFDYWGQGTLVTVSS VL: DIQLTQSPSFLSASVGDRVTITCRASSGVRYLYWYQQKPGKAPKLWIYFTSTLASGVPSRFSGSGSGNEYTLTISSLQPEDFATYYCQQFTRSPYTFGQGTKLEIK
binds	53Hu37 variant VH S103I / VL N30R/S92R (antibody, V domains shown) VH: EVQLLESGGGLVQPGGSLRLSCAASGFTFTSYAMSWVRQAPGKGLEWVATISHGGTYTYYPDSVKGRFTISRDNAKNTLYLQMNSLRAEDTAVYYCARHPIYIGNYQGYFDYWGQGTLVTVSS VL: DIQLTQSPSFLSASVGDRVTITCRASSGVRYLYWYQQKPGKAPKLWIYFTSTLASGVPSRFSGSGSGNEYTLTISSLQPEDFATYYCQQFTRSPYTFGQGTKLEIK
